Data as given in patent US20090304718A1 (Boehringer Ingelheim, published 2009).
No constants are given. Whether binding was seen depends on the method and setting. Some binding calls cover weakened binding; strength is not graded here.

The chains behind the UniProt entries cited, without tags or fusion partners. Residues count along the entry.
UniProt Q12884, residues 26-760: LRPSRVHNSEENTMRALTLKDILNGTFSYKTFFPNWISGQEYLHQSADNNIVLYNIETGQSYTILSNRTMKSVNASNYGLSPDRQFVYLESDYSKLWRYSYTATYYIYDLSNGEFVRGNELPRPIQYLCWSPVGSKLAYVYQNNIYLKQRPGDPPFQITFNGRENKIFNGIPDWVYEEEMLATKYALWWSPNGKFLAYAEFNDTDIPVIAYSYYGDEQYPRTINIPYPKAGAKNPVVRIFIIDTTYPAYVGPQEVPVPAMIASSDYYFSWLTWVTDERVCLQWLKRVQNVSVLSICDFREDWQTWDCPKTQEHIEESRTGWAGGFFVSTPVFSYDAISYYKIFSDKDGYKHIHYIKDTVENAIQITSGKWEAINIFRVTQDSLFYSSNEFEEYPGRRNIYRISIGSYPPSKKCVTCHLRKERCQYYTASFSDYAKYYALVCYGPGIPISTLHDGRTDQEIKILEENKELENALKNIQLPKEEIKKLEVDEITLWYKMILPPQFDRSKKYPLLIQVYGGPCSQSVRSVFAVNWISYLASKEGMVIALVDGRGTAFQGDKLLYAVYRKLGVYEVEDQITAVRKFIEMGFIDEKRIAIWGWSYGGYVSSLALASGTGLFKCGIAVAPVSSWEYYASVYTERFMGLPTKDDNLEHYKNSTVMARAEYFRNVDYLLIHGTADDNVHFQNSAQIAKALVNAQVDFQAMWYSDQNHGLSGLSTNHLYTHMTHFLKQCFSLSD

Target: recombinant human FAP (human) (UniProt Q12884)
Assay: SPR (Biacore 2000), recombinant human FAP as analyte

| binding | Binder |
| --- | --- |
| binds | humanized MFP5 antibody hVH01+hVK03-version1 (antibody, V domains shown) VH: QVQLVQSGAEVKKPGASVKVSCKASGYTFTNNGINWLRQAPGQGLEWMGEIYPRSTNTLYAQKFQGRVTITADRSSNTAYMELSSLRSEDTAVYFCARTLTAPFAFWGQGTLVTVSS VL: QIVLTQSPATLSLSPGERATLSCSASSGVNFMHWYQQKPGQAPRRLIFDTSKLASGIPARFSGSGSGTDYTLTISSLEPEDFAVYYCQQWSFNPPTFGQGTKVEIKR |
| binds | humanized MFP5 antibody hVH01+hVK03-version2 (antibody, V domains shown) VH: QVQLVQSGAEVKKPGASVKVSCKASGYTFTNNGINWLRQAPGQGLEWMGEIYPRSTNTLYAQKFQGRVTITADRSSNTAYMELSSLRSEDTAVYFCARTLTAPFAFWGQGTLVTVSS VL: QIVLTQSPATLSLSPGERATLSCSASSGVNFMHWYQQKPGQAPKRLIFDTSKLASGVPARFSGSGSGTDYTLTISSLEPEDFAVYYCQQWSFNPPTFGQGTKVEIKR |
